Experimental data as given in doi:10.1101/2025.06.12.659263.
Read-outs that look alike come from different tables or passages of the source. No constants are given. Whether binding was seen depends on the method and setting. Binding seen in cells or lysates may run through a third protein. Some entries that bind do so weakly or less than the wild type.

Amino acid sequences for entries named in this document (tags omitted). A change or cut given only in a name is not applied to a line headed by its entry. Residues count along the entry.
UniProt P23201: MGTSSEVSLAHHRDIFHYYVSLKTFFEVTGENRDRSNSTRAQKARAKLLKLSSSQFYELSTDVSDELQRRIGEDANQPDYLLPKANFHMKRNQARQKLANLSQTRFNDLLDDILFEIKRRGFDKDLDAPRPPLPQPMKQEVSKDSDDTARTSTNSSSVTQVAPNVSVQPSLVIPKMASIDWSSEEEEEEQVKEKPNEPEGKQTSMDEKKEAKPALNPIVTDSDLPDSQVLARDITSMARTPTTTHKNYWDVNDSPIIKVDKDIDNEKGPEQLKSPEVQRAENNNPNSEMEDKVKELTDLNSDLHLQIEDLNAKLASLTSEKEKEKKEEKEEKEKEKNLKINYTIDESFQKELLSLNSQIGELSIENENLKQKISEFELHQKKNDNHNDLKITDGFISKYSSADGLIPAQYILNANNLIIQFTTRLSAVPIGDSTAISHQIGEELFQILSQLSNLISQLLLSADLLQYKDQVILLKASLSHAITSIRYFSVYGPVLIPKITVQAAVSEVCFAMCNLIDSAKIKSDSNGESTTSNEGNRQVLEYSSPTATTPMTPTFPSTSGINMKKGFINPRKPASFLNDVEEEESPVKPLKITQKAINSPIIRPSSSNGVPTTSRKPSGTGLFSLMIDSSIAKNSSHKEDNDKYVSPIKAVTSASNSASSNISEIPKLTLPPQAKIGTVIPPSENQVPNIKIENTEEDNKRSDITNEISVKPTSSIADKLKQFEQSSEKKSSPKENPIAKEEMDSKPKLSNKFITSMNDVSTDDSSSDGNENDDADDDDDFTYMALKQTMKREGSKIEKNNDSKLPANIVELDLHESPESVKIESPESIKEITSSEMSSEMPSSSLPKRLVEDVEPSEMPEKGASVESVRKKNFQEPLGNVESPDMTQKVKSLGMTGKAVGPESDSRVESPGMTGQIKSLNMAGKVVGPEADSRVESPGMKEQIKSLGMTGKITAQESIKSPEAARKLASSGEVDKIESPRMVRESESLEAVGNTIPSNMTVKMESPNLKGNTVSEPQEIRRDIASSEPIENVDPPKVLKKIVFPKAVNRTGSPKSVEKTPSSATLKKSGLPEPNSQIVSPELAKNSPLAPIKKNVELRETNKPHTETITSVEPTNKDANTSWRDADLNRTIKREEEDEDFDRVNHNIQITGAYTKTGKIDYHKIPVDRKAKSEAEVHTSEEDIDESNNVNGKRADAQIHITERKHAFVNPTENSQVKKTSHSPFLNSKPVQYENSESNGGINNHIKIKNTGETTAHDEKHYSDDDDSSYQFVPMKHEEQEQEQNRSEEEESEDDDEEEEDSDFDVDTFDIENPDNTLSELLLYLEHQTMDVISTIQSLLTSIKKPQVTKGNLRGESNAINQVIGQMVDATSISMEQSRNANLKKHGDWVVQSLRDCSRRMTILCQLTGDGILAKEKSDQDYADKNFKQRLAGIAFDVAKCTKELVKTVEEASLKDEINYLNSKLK
SHD1CRU: residues 1-124 of P23201

T1: Msb4CRU (S. cerevisiae) (UniProt Q12317)
T1 sequence: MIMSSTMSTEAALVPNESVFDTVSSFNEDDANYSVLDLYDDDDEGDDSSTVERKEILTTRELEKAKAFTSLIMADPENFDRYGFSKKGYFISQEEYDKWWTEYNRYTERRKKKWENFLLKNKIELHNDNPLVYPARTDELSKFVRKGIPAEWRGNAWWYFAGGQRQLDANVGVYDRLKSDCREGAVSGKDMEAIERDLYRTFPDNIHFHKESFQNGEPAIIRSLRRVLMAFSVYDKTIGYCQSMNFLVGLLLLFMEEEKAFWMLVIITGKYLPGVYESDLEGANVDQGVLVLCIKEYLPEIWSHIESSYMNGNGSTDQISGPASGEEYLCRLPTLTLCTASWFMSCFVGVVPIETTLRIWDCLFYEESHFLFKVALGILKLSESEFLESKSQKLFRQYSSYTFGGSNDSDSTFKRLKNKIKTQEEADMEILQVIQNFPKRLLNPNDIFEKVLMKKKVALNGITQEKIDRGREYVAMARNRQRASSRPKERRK

T2: Msb3CRU (S. cerevisiae) (UniProt P48566)
T2 sequence: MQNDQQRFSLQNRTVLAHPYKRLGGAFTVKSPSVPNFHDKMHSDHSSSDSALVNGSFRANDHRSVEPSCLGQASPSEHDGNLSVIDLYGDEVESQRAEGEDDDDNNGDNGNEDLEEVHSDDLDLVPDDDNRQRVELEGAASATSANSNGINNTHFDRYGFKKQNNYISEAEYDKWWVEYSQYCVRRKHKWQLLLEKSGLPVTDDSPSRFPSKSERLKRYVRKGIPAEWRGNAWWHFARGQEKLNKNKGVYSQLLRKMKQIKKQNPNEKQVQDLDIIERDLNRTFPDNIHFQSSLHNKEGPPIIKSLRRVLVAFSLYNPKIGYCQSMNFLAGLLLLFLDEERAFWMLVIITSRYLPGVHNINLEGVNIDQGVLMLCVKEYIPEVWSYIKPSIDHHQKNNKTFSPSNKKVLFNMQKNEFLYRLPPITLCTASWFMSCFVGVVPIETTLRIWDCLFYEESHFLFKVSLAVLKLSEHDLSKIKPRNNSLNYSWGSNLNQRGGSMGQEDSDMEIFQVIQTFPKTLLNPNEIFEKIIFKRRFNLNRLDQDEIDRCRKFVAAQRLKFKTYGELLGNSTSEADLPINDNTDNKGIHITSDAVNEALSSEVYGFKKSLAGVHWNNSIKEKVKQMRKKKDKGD

T3: Ste5CRU (S. cerevisiae) (UniProt P32917)
T3 sequence: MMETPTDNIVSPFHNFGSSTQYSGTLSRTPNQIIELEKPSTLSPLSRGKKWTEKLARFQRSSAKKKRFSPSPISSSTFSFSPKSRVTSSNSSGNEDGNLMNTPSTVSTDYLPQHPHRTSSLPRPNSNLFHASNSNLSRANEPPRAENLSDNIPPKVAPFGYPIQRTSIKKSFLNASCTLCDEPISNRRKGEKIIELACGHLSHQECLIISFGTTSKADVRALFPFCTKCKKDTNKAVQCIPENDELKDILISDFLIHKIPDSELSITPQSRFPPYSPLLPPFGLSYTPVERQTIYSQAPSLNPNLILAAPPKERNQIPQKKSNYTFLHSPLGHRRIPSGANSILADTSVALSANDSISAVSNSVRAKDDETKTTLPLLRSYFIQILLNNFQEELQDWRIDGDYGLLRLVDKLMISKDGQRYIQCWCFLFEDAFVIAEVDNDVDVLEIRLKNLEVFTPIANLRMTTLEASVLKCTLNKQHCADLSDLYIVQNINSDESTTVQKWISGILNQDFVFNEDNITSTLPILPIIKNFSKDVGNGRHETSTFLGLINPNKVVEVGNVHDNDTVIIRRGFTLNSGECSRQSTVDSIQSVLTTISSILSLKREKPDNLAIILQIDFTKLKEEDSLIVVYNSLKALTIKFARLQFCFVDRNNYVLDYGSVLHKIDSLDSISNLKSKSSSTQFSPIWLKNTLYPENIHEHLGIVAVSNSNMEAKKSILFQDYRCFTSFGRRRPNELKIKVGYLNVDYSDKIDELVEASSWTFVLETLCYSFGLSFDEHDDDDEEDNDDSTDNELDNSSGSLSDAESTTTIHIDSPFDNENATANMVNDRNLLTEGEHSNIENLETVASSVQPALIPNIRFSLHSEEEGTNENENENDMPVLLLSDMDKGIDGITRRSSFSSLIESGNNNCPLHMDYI


Columns and labels:
Assay in all cases: split reporter
Msb4CRU (S. cerevisiae) = target: T1, Msb4CRU (S. cerevisiae)
Msb3CRU (S. cerevisiae) = target: T2, Msb3CRU (S. cerevisiae)
[1] = target: Msb4_(22-81)-Spa2CRU (S. cerevisiae) (UniProt Q12317+P23201)
Spa2CRU (S. cerevisiae) = Spa2CRU (S. cerevisiae) (UniProt P23201)
SHD1CRU (S. cerevisiae) [2] = target: SHD1CRU (S. cerevisiae) (UniProt P23201)
Ste5CRU (S. cerevisiae) = target: T3, Ste5CRU (S. cerevisiae)
SHD1CRU (S. cerevisiae) [3] = target: SHD1CRU (S. cerevisiae) (UniProt P23201); remark: listed apart in the source

Molecule	binding (Msb4CRU (S. cerevisiae))	binding (Msb3CRU (S. cerevisiae))	binding (Spa2CRU (S. cerevisiae))	binding (SHD1CRU (S. cerevisiae) [3])	further results
Nub-Spa2 (from UniProt P23201 1-1466)	binds	binds			
Nub-Pea2 (protein, UniProt P40091 1-420) MHKFDLELSRRANPLLFSAERYEEYPLKYDELKQYLLSQNPSHPHHNSRPYTSIDYFDYLLYRSKNDESEIDLDKKLVSEFALYYVQKEHLNSDDLNPTLNELLKLQPKSADWYEMMLRILESINTTGIDQLTKENNNSFPNSKRARSSTNMGGTDKFNKGAYHTDKADDDKNEILQELTSFLMSNSIQKGIDIKPIPLDDPVKFLKNGINSILDTCVSLEKNTSSPPISPNAAAIQEEDSSKKLEELETAFSDLQLAHNFLTKQFENDRAEYVQDIEKLTRTNRELQDKLLNNHSNLSKTEKKLHELEQENKELEKANNKLNSSRHNFGMSSPASSPVTWDPSSPSSVGSPTSGSGSRSLSIMTSEFKKVLTSTQRKYEKELSDEREHRFKLERELALLKNAEANTSLALNRDDPPDML	binds	binds	binds		binding [1]: binds
Msb4_(22-81), the N-terminal extension of Msb4_(22-81)-Spa2CRU (domain or fragment, UniProt Q12317 22-81) TVSSFNEDDANYSVLDLYDDDDEGDDSSTVERKEILTTRELEKAKAFTSLIMADPENFDR			binds		
Msb3_(71-130), the N-terminal extension of Msb3_(71-130)-SHD1CRU (domain or fragment, UniProt P48566 71-130) GQASPSEHDGNLSVIDLYGDEVESQRAEGEDDDDNNGDNGNEDLEEVHSDDLDLVPDDDN					binding (SHD1CRU (S. cerevisiae) [2]): binds
Nub-Ste7_(Δ119-123) (protein, UniProt P06784) MFQRKTLQRRNLKGLNLNLHPDVGNNGQLQEKTETHQGQSRIEGHVMSNINAIQNNSNLFLRRGIKKKLTLDAFGDDQAISKPNTVVIQQPQNEPVLVLSSLSQSPCVSSSSSLSTPCSNNFGLSPSSTNSTPSTIQGLSNIATPVENEHSISLPPLEESLSPAAADLKDTLSGTSNGNYIQLQDLVQLGKIGAGNSGTVVKALHVPDSKIVAKKTIPVEQNNSTIINQLVRELSIVKNVKPHENIITFYGAYYNQHINNEIIILMEYSDCGSLDKILSVYKRFVQRGTVSSKKTWFNELTISKIAYGVLNGLDHLYRQYKIIHRDIKPSNVLINSKGQIKLCDFGVSKKLINSIADTFVGTSTYMSPERIQGNVYSIKGDVWSLGLMIIELVTGEFPLGGHNDTPDGILDLLQRIVNEPSPRLPKDRIYSKEMTDFVNRCCIKNERERSSIHELLHHDLIMKYVSPSKDDKFRHWCRKIKSKIKEDKRIKREALDRAKLEKKQSERSTH				no binding	binding (Ste5CRU (S. cerevisiae)): binds
Nub-Msb4_(Δ35-39) (protein, UniProt Q12317) MIMSSTMSTEAALVPNESVFDTVSSFNEDDANYSDDDDEGDDSSTVERKEILTTRELEKAKAFTSLIMADPENFDRYGFSKKGYFISQEEYDKWWTEYNRYTERRKKKWENFLLKNKIELHNDNPLVYPARTDELSKFVRKGIPAEWRGNAWWYFAGGQRQLDANVGVYDRLKSDCREGAVSGKDMEAIERDLYRTFPDNIHFHKESFQNGEPAIIRSLRRVLMAFSVYDKTIGYCQSMNFLVGLLLLFMEEEKAFWMLVIITGKYLPGVYESDLEGANVDQGVLVLCIKEYLPEIWSHIESSYMNGNGSTDQISGPASGEEYLCRLPTLTLCTASWFMSCFVGVVPIETTLRIWDCLFYEESHFLFKVALGILKLSESEFLESKSQKLFRQYSSYTFGGSNDSDSTFKRLKNKIKTQEEADMEILQVIQNFPKRLLNPNDIFEKVLMKKKVALNGITQEKIDRGREYVAMARNRQRASSRPKERRK				no binding	
